Source: PubChem BioAssay AID624297 (National Center for Advancing Translational Sciences (NCATS), 2012)
In all, about 340,000 compounds went through this assay and about 6,200 (1.8%) were called active. Inconclusive results, whose numbers are uncertain, are shown with a selection of clear calls. Calls follow the shape of the dose curve; as a rule, active = well fitted activation curve with a large enough effect; inconclusive = small, poorly fitted or top-dose-only effect; inactive = no such curve, though single readings can be large or run the other way. A potency beside an inconclusive call is a rough fit, not a confirmed value.

Assay: A quantitative high throughput screen for small molecules that induce DNA re-replication in SW480 colon adenocarcinoma cells. Also: nearly all actives have a fitted effect of over 55% in size. As to re-replication activation: % of control where 0% means no effect.
Settings: Hoechst DNA content imaging, 48 h; re-replication activation: at 46.1 µM (top of the series)
Procedure, shortened: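 250 cells/well; 23 nL cpd via pin tool; 48 hr, 37 C, 5% CO2; Hoechst 40 min; imager read of total nuclear intensity, ex 405/em 500-530 nm.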
Potency is read from the fitted curve at half-maximal effect.

SMILES | Potency | re-replication activation
Cc1c(CN2CCC(n3nccc3NC(=O)C3CC3)CC2)[nH]c2ccccc12 | inactive | –
Cc1cc(NC(=O)C(Cl)c2ccccc2)no1 (configuration not stated) | inconclusive: 16.4 µM [activator, single point] | –
Cc1ccc(CC(=O)NCC(O)c2ccccc2)cc1 (configuration not stated) | inconclusive: 0.731 µM [activator, full curve, poor fit] | –
COc1cccc2sc3cc(NCc4ccc5c(c4)OCO5)ccc3c(=O)c12 | inconclusive: 29.1 µM [activator, single point] | –
CC1CCc2c(C(=O)NCC3CCCO3)csc2C1 (configuration not stated) | inactive | –
COc1ccc(NC(=O)CNS(=O)(=O)c2ccc(Cl)cc2)cc1OC | active: 18.4 µM | –
COc1cc(/C=C2/CC(C)OC2=O)c([N+](=O)[O-])cc1OC (configuration not stated) | inactive | –
Cc1cc(C)n(/N=C/c2cccc([N+](=O)[O-])c2)c(=O)c1 | inconclusive: 0.517 µM [activator, full curve] | –
O=C(O)c1ccc(COc2ccc3ccccc3c2/C=C2/NC(=O)N(c3ccccc3)C2=O)cc1 | inconclusive: 23.1 µM [activator, partial curve, poor fit] | –
CCOC(=O)c1cnc(-n2nc(C)cc2C)nc1NCc1ccccc1 | inconclusive: 32.6 µM [activator, partial curve, poor fit] | –
COc1cc(Br)cc(/C=N/NC(=O)Cc2ccccc2)c1O | inconclusive: 29.1 µM [activator, single point] | –
COc1ccc(C(=O)Nc2cccc3c2CCCC3)c(OC)c1 | inconclusive: 0.0184 µM [activator, full curve, poor fit] | –
CCOc1ccccc1N1CCN(C(=O)c2ccncc2)CC1 | inconclusive: 0.146 µM [activator, full curve, poor fit] | –
COc1ccc(C)cc1NS(=O)(=O)c1ccc2c(c1)CCN2C(C)=O | inconclusive: 29.1 µM [activator, single point] | –
COc1ccc(C2=NOC(C(=O)NCc3ccc(F)cc3)C2)cc1OC (configuration not stated) | active: 2.06 µM | –
CCN1c2ccccc2NC2N=C(OC)C(c3ccccc3)C21 (configuration not stated) | active: 16.4 µM | –
COc1ccc(-n2nc(C(=O)O)cc2-c2ccccc2)cc1 | inactive | –
CCOCCCNC(=O)/C=C1\Sc2ccccc2N(Cc2ccccc2F)C1=O | inconclusive: 16.4 µM [activator, single point] | –
CCC1CCCCN1CCNC(=O)C1CCN(S(=O)(=O)c2cccc3nsnc23)CC1 (configuration not stated) | – | inconclusive: 38.6% [activator]
COc1ccc(NC(=O)c2ccc(C)cc2)cc1 | inactive | –
CC(C)(C)OC(=O)NCc1ccc(NC(=O)c2nc[nH]c2C(=O)NCCCCCCNC(=O)c2[nH]cnc2C(=O)Nc2ccc(CNC(=O)OC(C)(C)C)cc2)cc1 | inactive | –
N=c1n(Cc2ccccc2)c2ccccc2n1CC(O)c1ccccc1 (configuration not stated) | inconclusive: 29.1 µM [activator, single point] | –
Cc1ccc(C)c(-n2sc3ccc(F)cc3c2=O)c1 | active: 18.4 µM | –
CC(C)C(=O)C1=Cc2cccc([N+](=O)[O-])c2OC1N1CCOCC1 (configuration not stated) | inactive | –

Taken from above.
CCOC(=O)c1cnc(-n2nc(C)cc2C)nc1NCc1ccccc1 | Potency: inconclusive: 32.6 µM [activator, partial curve, poor fit]
Cc1cc(C)n(/N=C/c2cccc([N+](=O)[O-])c2)c(=O)c1 | Potency: inconclusive: 0.517 µM [activator, full curve]

Further results.

SMILES | Potency | re-replication activation
COc1cccc(F)c1C(C[N+](=O)[O-])c1c(N)n(C)c(=O)n(C)c1=O (configuration not stated) | active: 4.11 µM | –
COc1ccc(S(=O)(=O)NN(C)c2ncc(C(F)(F)F)cc2Cl)cc1 | inactive | –
COc1ccc(S(=O)(=O)NCC2CCCN(C(=O)CSC)C2)cc1 (configuration not stated) | inconclusive: 2.91 µM [activator, single point] | –
O=C(NCC1CCN(Cc2ccccc2F)CC1)C1CCCN(c2ncnc3c2nc2n3CCCCC2)C1 (configuration not stated) | inactive | –
Cc1nc(-c2ccc(-n3nncc3-c3ccco3)cc2)cs1 | inactive | –
Cc1cccc(/C=c2\s/c(=C\C(=O)C(C)(C)C)[nH]c2=O)c1 | inconclusive: 20.6 µM [activator, single point] | –
Cc1c(C(=O)Nc2c(F)cccc2F)sc2ncnc(N3CCN(c4ccccc4)CC3)c12 | inactive | –
COc1ccccc1OCC(=O)Nc1ccc2c(c1)OCO2 | inconclusive: 29.1 µM [activator, single point] | –
COc1cccc(N(C(=O)CCl)C(C(=O)NCCc2ccccc2)c2cccs2)c1 (configuration not stated) | inconclusive: 16.4 µM [activator, partial curve, poor fit] | –
CCCCN(C)CCCNC(=O)c1ccc(N2CCCC2=O)cc1 | inconclusive: 0.501 µM [activator, partial curve, poor fit] | –
COc1ccc(NC(=O)c2cc(-c3ccccn3)nc3c(C)cc(C)cc23)c(C)c1 | inconclusive: 18.4 µM [activator, single point] | –
CCN(Cc1ccccc1)C(c1ccccn1)c1nnnn1C(C)(C)CC (configuration not stated) | inconclusive: 29.1 µM [activator, partial curve, poor fit] | –
Cc1[nH]ccc(=O)c1OCc1ccccc1 | inconclusive: 16.4 µM [activator, single point] | –
C=CC[C@H](CC(=O)NCCO)C(=O)NCCOC(=O)[C@@H](CC=C)Cc1ccc(F)cc1 | inactive | –
O=C(Cc1ccccc1)Nc1ccc(NC(=O)c2cccc(Cl)c2)cc1 | inconclusive: 6.51 µM [activator, single point] | –
Cn1c(=O)cc(NCCc2ccccc2)[nH]c1=O | inconclusive: 18.4 µM [activator, single point] | –
Cn1c(-c2ccccc2[N+](=O)[O-])[n+](C)c2ccccc21 | inactive | –
CN(C)c1c(N)[nH]c2c(c1=O)c(=O)n(C)c(=O)n2C | inconclusive: 0.92 µM [activator, partial curve, poor fit] | –
O=C(Nc1ccc(S(=O)(=O)Nc2ccccc2F)cc1)N1CCCCC1 | inconclusive: 32.6 µM [activator, single point] | –
CCOC(=O)c1ccc(Nc2cc(C)nc(N3CCOCC3)n2)cc1 | inconclusive: 29.1 µM [activator, single point] | –
COc1ccc(C2=NN(C(=O)COC(=O)c3ccc(NC(=O)CC#N)cc3)C(c3ccco3)C2)cc1 (configuration not stated) | inactive | –
CCN(CC)c1cccc(OCC(=O)N(C)CCC#N)c1 | inconclusive: 29.1 µM [activator, single point] | –
CCN(CC)c1ccc(SS(=O)(=O)O)cc1 | inactive | –
Cc1c(NC(=O)c2cc(-c3ccccc3)on2)c(=O)n(-c2ccccc2)n1C | inactive | –

SMILES | Potency | re-replication activation
O=C(CCCOc1ccc(Br)cc1)NCCc1ccc(OC(F)F)cc1 | inconclusive: 18.4 µM [activator, single point] | –
Cn1c(=S)[nH]c(=O)c2ncc(=O)[nH]c21 | inactive | –
CCC(c1nnnn1CCc1ccccc1)N(Cc1ccco1)Cc1cc2cc(C)cc(C)c2[nH]c1=O (configuration not stated) | inconclusive: 18.4 µM [activator, single point] | –
CCCCn1c(N)c(N(Cc2ccccc2OC)C(=O)c2ccc(N3CCCC3=O)cc2)c(=O)[nH]c1=O | inactive | –
COc1cc(/C=N/Nc2ncc(C(F)(F)F)cc2Cl)cc(OC)c1O | inactive | –
CN1CCN(C2=C(NS(=O)(=O)c3cccs3)C(=O)c3ccccc3C2=O)CC1 | inconclusive: 16.4 µM [activator, single point] | –
CC(=O)N1CCN(c2ccc(NC(=O)c3ccc([N+](=O)[O-])o3)cc2Cl)CC1 | inconclusive: 1.46 µM [activator, full curve, poor fit] | –
CC(=O)c1ccc(OCc2cccc(C(F)(F)F)c2)cc1O | inconclusive: 3.66 µM [activator, partial curve, poor fit] | –
O=[N+]([O-])c1ccc(Sc2nnnn2-c2ccccc2)c(Cl)c1 | inconclusive: 14.6 µM [activator, partial curve, poor fit] | –
O=C(N/N=C/c1c(O)n(-c2ccc(Cl)cn2)c(=O)c2ccccc12)C1CC1 | inconclusive: 23.1 µM [activator, partial curve, poor fit] | –
COc1cc(CNc2nc(C)c([N+](=O)[O-])c(C)c2C#N)cc(OC)c1 | inactive | –
O=C(CC12CC3CC(CC(C3)C1)C2)Nc1c(F)cccc1F | inactive | –
C=CCn1c(C)cc(C(=O)COc2ccc(S(=O)(=O)N3CCCC3)cc2[N+](=O)[O-])c1C | inconclusive: 29.1 µM [activator, single point] | –
COc1ccc(CSC(=N)N)cc1[N+](=O)[O-] | inconclusive: 20.6 µM [activator, single point] | –
Cc1ccc(CSCC(=O)NCc2ccco2)cc1 | inactive | –
C=C1[C@@H](O)[C@H](CC(C)C)N(Cc2ccccc2Br)S1(=O)=O | inconclusive: 29.1 µM [activator, single point] | –
C=CCOC(=O)C1=C[C@@H](c2ccccc2)[C@H](CCCO)[C@@H](OCC)O1 | inconclusive: 29.1 µM [activator, single point] | –
CC(C)/C=C1\CC/C(=C\c2cccnc2)C1=O | inactive | –
COc1cccc(-c2nn(-c3ccccc3)cc2CN(C)Cc2ccno2)c1 | inconclusive: 29.1 µM [activator, single point] | –
CC(=O)c1c(OC(=O)c2ccco2)c2ccccc2n1C | inactive | –
CC(C)CCNc1c(-c2cccs2)nc2ccccn12 | inconclusive: 23.1 µM [activator, single point] | –
N=c1c[n+](N2CCOCC2)[n-]o1 | inconclusive: 23.1 µM [activator, single point] | –
CCOc1ccc(OCC(O)CNC2CCN(Cc3ccccc3)CC2)cc1 (configuration not stated) | inconclusive: 18.4 µM [activator, single point] | –
Cc1nc(N)sc1C(=O)N1N=N1 | inconclusive: 29.1 µM [activator, single point] | –

Single records (already shown).
Cc1c(NC(=O)c2cc(-c3ccccc3)on2)c(=O)n(-c2ccccc2)n1C in the list: Potency: inactive
CC(=O)c1c(OC(=O)c2ccco2)c2ccccc2n1C in the list: Potency: inactive
Cc1nc(-c2ccc(-n3nncc3-c3ccco3)cc2)cs1 in the list: Potency: inactive
O=C(CCCOc1ccc(Br)cc1)NCCc1ccc(OC(F)F)cc1 in the list: Potency: inconclusive: 18.4 µM [activator, single point]
